From article PMC11139983
These are yes or no findings as the source states them, for the method shown. Binding seen in cells or lysates may run through a third protein. Some entries that bind do so weakly or less than the wild type.

Experiments:
Assay in all cases: FRET or BRET; receptor-Rluc8 and Venus-β-arrestin2 co-transfected in HEK293T cells; PBS with 0.1% glucose, 5 µM Coelenterazine-H; BRET (540/480 nm) read 10 min after adding chemokine (CXCL12 or CXCL11) and/or VUN701
ACKR3 A271C (human) = biological target: ACKR3 A271C (human)
ACKR3 L293C (human) = biological target: ACKR3 L293C (human)
[1] = biological target: ACKR3 A271C L293C (human)

binding (ACKR3 A271C (human)): binds
binding (ACKR3 L293C (human)): binds
binding [1]: binds
Substance: β-arrestin2 (from UniProt P32121 1-409)
